Measurements reported in PubChem BioAssay AID493014 (National Center for Advancing Translational Sciences (NCATS), 2011).
This is one part of the list. These are further read-outs of the screen, such as a control signal, another cell line or another target. No call is given for them. Most of these compounds were active or inconclusive in the main read-out, so they are no random draw. The note in brackets gives the kind of curve behind each potency; many fits are weak.

Assay: qHTS Assay to Find Inhibitors of Chronic Active B-Cell Receptor Signaling
Conditions: ABC-DLBCL IkBa-CBG/CBR reporter, luminescence ratio (green luciferase fused to IkBa over red control in TMD8 lymphoma cells), 4 h
Summary of the method: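 Doxycycline induced both beetle luciferases in TMD8 lymphoma cells; IKK-driven degradation limits the IkappaBalpha-fused green signal, while red luminescence normalises for cell number and nonspecific effects. Compounds tested up to 46 uM, 4 hrs.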

[1] = measured here: CBR red luminescence, cell number
[2] = measured here: IkBa-CBG green luminescence

Row | Structure (SMILES) | AC50 [1] | AC50 [2]
1 | O=C(CCc1ccccc1)Nc1ccc2c(c1)OCO2 | 0.0891 µM [rising, full curve, poor fit] | –
2 | O=[N+]([O-])c1cccnc1Oc1cccnc1 | 5.62 µM [falling, full curve] | –
3 | Cn1c(=O)c2cc(S(=O)(=O)NCCC(=O)NCCc3ccc(Cl)cc3)ccc2n(C)c1=O | 1.78 µM [falling, partial curve] | –
4 | CC(C)[C@H](NC(=O)c1ccccc1)C(=O)OCC(=O)Nc1ncc(Cl)cc1Cl | 16.4 µM [rising, partial curve] | –
5 | COc1ccc2c(=O)c3c(=O)n(CCc4ccccc4)c(C(C)C)nc3oc2c1 | 35.5 µM [falling, single point] | –
6 | CCCCOC(=O)c1ccc(NC(=O)COC(=O)C2CSC3(C)CCC(=O)N23)cc1 (stereo not drawn) | 0.00461 µM [rising, full curve, poor fit] | –
7 | O=C(O)c1ccccc1NC(=O)c1ccccc1Nc1ccccc1 | 2.82 µM [falling, partial curve] | –
8 | Cc1ccccc1NC(=O)c1ccc(Cl)c(NC(=O)c2cccnc2)c1 | 10 µM [falling, partial curve, poor fit] | –
9 | COC(=O)c1ccccc1NC(=O)C(=O)NCC1CCCO1 (stereo not drawn) | 2.06 µM [falling, full curve] | –
10 | O=C(CCNC(=O)c1ccccc1Cl)Nc1nc(-c2ccc3ccccc3c2)cs1 | 18.4 µM [falling, partial curve] | –
11 | CCOC(=O)c1nn(-c2ccc3c(c2)CCN3C(C)=O)cc1O | 11.2 µM [rising, partial curve, poor fit] | –
12 | CC(=O)c1c(C)[nH]c(C(=O)COC(=O)CCSc2ccccc2)c1C | 20.6 µM [rising, partial curve, poor fit] | –
13 | COc1ccc(CNC(=O)C(=O)c2cn(CC(=O)N3CCCC3)c3ccccc23)cc1 | 1 µM [falling, full curve] | –
14 | Cc1ccc(OCCCC(=O)Nc2ccc(S(=O)(=O)Nc3cc(C)nc(C)n3)cc2)cc1 | 17.8 µM [rising, partial curve, poor fit] | –
15 | COc1ccc(-c2csc(NC(=O)Cn3nc(C)cc3C)n2)cc1 | 35.5 µM [falling, single point] | –
16 | COc1cccc2[nH]c3c(N4CCC(C)CC4)ncnc3c12 | 2.82 µM [falling, full curve] | –
17 | CC1(C)C2CCC1(C)C(NC(=O)/C=C/c1ccccc1)C2 (stereo not drawn) | 4.47 µM [rising, single point] | –
18 | COCCN(Cc1cc2cc3c(cc2nc1Cl)OCO3)C(C)=O | 0.891 µM [falling, full curve] | –
19 | CC(C)c1ccc(OCC(=O)NNC(=S)NC(=O)C2CC2)cc1 | 15.8 µM [rising, single point] | –
20 | NC(=O)NC(CC(=O)NCCc1ccc(S(N)(=O)=O)cc1)c1ccc(Cl)cc1 (stereo not drawn) | 6.31 µM [falling, single point] | –
21 | CCOC(=O)N1CCC(=NNc2nc3ccccc3s2)CC1 | 35.5 µM [falling, single point] | –
22 | N#Cc1nc(-c2ccco2)oc1N1CCN(c2cccc(Cl)c2)CC1 | 0.164 µM [rising, full curve, poor fit] | –

From compound 19 to 21, copied from above:
Row | Structure (SMILES) | AC50 [1] | AC50 [2]
19 | CC(C)c1ccc(OCC(=O)NNC(=S)NC(=O)C2CC2)cc1 | 15.8 µM [rising, single point] | –
20 | NC(=O)NC(CC(=O)NCCc1ccc(S(N)(=O)=O)cc1)c1ccc(Cl)cc1 (stereo not drawn) | 6.31 µM [falling, single point] | –
21 | CCOC(=O)N1CCC(=NNc2nc3ccccc3s2)CC1 | 35.5 µM [falling, single point] | –

(list continues)

Row | Structure (SMILES) | AC50 [1] | AC50 [2]
23 | Cc1ccc(SCC(=O)OCC(=O)N(C)CC(=O)Nc2ccc(F)cc2)cc1C | 5.8 µM [falling, full curve] | –
24 | O=C(Nc1ccccc1)/C(=C\c1ccco1)NC(=O)c1ccco1 | 35.5 µM [falling, single point] | –
25 | O=C(CN1C(=O)C2CC=CCC2C1=O)N1CCN(c2ccc([N+](=O)[O-])cc2)CC1 (stereo not drawn) | 5.62 µM [rising, full curve, poor fit] | –
26 | Cc1cccc(-c2nc(C#N)c(NCC3CCCO3)o2)c1 (stereo not drawn) | 4.47 µM [rising, single point] | –
27 | CCOCCCNC(=O)c1cc(Nc2ccc(OC)cc2OC)nc2ccccc12 | 11.2 µM [falling, partial curve, poor fit] | –
28 | CCC(C)NC(=O)COC(=O)c1ccccc1OCC(=O)Nc1ccc(Br)cc1 (stereo not drawn) | 20.6 µM [falling, single point] | –
29 | Cc1c(C(=O)Nc2ccccc2)csc1-c1ccccc1 | 14.6 µM [rising, partial curve, poor fit] | –
30 | CCCCNC(=O)CSc1nc(CCC)nc2ccccc12 | 0.794 µM [falling, full curve, poor fit] | –
31 | COc1ccc(NC(=O)CSc2cc(C(=O)c3nccn3C)c3ccccc3n2)cc1 | 14.1 µM [falling, single point] | –
32 | CCN1C(=O)S/C(=C/c2c(OCc3ccc(C(=O)O)cc3)ccc3ccccc23)C1=O | 23.1 µM [falling, single point] | –
33 | CCCCn1c(NC(C)=O)c(C#N)c2nc3ccccc3nc21 | 35.5 µM [falling, single point] | –
34 | O=C(O)c1cc(O)ccc1NC(=O)c1cccc2ccccc12 | 1.41 µM [falling, full curve] | –
35 | Cc1cccc(CN2CCCC(C(=O)Nc3ccc(-c4cscn4)cc3)C2)c1 (stereo not drawn) | 11.2 µM [falling, partial curve] | –
36 | COc1ccc(CN(CCc2ccccc2)Cc2ccccc2)cc1OC | 14.1 µM [rising, single point] | –
37 | O=C(Nc1ccc(NC(=O)c2ccco2)nc1)c1ccccn1 | 10 µM [falling, partial curve, poor fit] | –
38 | COc1ccc(C(=O)NCCn2cc(SCC(=O)NCc3ccco3)c3ccccc32)cc1 | 35.5 µM [falling, single point] | –
39 | COc1ccccc1CNC(=O)C1CCC(CNS(=O)(=O)c2ccc(F)cc2)CC1 (stereo not drawn) | 15.8 µM [falling, single point] | –
40 | CCOC(=O)c1c(-c2ccc(-c3ccccc3)cc2)csc1NC(=O)C1C2CCC(O2)C1C(=O)O (stereo not drawn) | 15.8 µM [falling, single point] | 17.8 µM [rising, partial curve, poor fit]
41 | Cc1nn(C)c(C(=O)NNC(=S)NCc2ccccc2)c1Cl | 3.55 µM [rising, partial curve, poor fit] | –
42 | COc1ccc2ccc(=O)oc2c1CC=C(C)C | 23.1 µM [rising, partial curve, poor fit] | –
43 | Cc1ccc(-c2ccc(/C=N/n3cnnc3)o2)cc1Cl | 29.1 µM [rising, single point] | –
44 | COc1ccc(-c2nc(NC(=O)CSCCO)sc2C)cc1 | 2.82 µM [falling, full curve] | –

Row | Structure (SMILES) | AC50 [1] | AC50 [2]
45 | CCN(CC)c1ccc2c(C)cc(=O)oc2c1 | 23.1 µM [rising, single point] | –
46 | COc1ccc(S(=O)(=O)N2CCCC(N(C)CCc3ccccc3)C2)cc1OC (stereo not drawn) | 12.6 µM [rising, single point] | –
47 | O=C(NC1CCCCCC1)C(=O)NC1CCCC1 | 6.51 µM [falling, single point] | –
48 | COc1ccc2nc(Nc3nc(-c4ccncc4)cs3)sc2c1 | 0.794 µM [rising, full curve, poor fit] | –
49 | Cc1ccccc1C(=O)Nc1ccc2nc3n(c(=O)c2c1)CCC3 | 13 µM [falling, partial curve, poor fit] | –
50 | CCOC(=O)c1ccc(-c2c(C(=O)OCC)oc3cc(O)c(CC)cc3c2=O)o1 | 2.31 µM [falling, partial curve, poor fit] | 18.4 µM [falling, single point]
51 | CCOC(=O)c1c(CN2CCCCC2)n(C)c2cc(Br)c(O)cc12 | 20.6 µM [rising, single point] | –
52 | CC(C)CCNC(=S)Nc1ccc([N+](=O)[O-])cc1 | 1.64 µM [rising, partial curve] | 32.6 µM [rising, partial curve, poor fit]
53 | CCOC(=O)c1oc2ccc(CNC3CCCCC3)c(Cl)c2c1C | 5.17 µM [falling, partial curve, poor fit] | –
54 | CNC(=O)c1cc(C(=O)c2c(Cl)cccc2Cl)c[nH]1 | 4.47 µM [rising, single point] | –
55 | S=C(NC1CCCCC1)N1CCN(c2ncccn2)CC1 | 15.8 µM [rising, single point] | –
56 | COCCCN1C(=O)c2[nH]nc(-c3cc(C)cc(C)c3O)c2C1c1ccc(O)c(OC)c1 (stereo not drawn) | 35.5 µM [falling, single point] | –
57 | CN(C)CC(CCC(CN(C)C)C(O)(c1ccccc1)c1ccccc1)C(O)(c1ccccc1)c1ccccc1 (stereo not drawn) | 7.94 µM [falling, partial curve] | –
58 | O=C(CCCc1ccccc1)c1ccc2c(c1)OCCO2 | 20.6 µM [falling, partial curve] | –
59 | C[C@@H]1CCC(=O)N(CC[C@H](Sc2ccc(Br)cc2)c2ccccc2)CC1 | 20.6 µM [falling, partial curve, poor fit] | –
60 | CCOC(=O)C(=CNc1ccc(Cl)cn1)C(=O)OCC | 22.4 µM [falling, single point] | –
61 | Cc1nnc(NC(=O)COc2ccc3c(C)cc(=O)oc3c2)s1 | 20.6 µM [rising, single point] | –
62 | Cc1ccc(CNCC(O)(c2ccccc2)c2ccccc2)cc1 | 35.5 µM [falling, single point] | –
63 | Cc1ccsc1/C=N/Nc1nc2ccccc2[nH]1 | 7.31 µM [falling, partial curve] | –
64 | CCCCN(CC)CCCNC(=S)Nc1ccc2nc(N3CCN(C)CC3)cc(C)c2c1 | 4.47 µM [falling, full curve] | –
65 | Cc1ccc(/C=C2/SC(=S)N(CCCC(=O)Nc3cc([N+](=O)[O-])ccc3O)C2=O)cc1 | 1 µM [falling, full curve] | –
